Screen size: about 340,000 compounds; about 170 (0.05%) were called active. Inconclusive results, whose numbers are uncertain, are shown with a selection of clear calls. Calls follow the shape of the dose curve; as a rule, active = well fitted inhibition curve with a large enough effect in the signal ratio, with a control signal flat (not every such curve was filed as active); inconclusive = small, poorly fitted or top-dose-only effect, or effect the other way, or a change in a side signal; inactive = flat fitted curve, though single readings scatter; the % refers to the signal ratio. Potencies beside an inconclusive call are fits to weak or partial responses and may not hold up.
Assay: qHTS Assay to Find Inhibitors of Chronic Active B-Cell Receptor Signaling;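 as to activity change, negative = inhibition: plate controls were basal doxycycline-induced cells for no effect and cells given 10 µM MG132 for full effect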
Conditions: ABC-DLBCL IkBa-CBG/CBR reporter, luminescence ratio (green luciferase fused to IkBa over red control in TMD8 lymphoma cells), 4 h; activity change, negative = inhibition: at 46.1 µM (top of the series)
Outline: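 Cell line TMD8 (human ABC DLBCL), stably expressing tet-inducible CBG68-IkBa fusion and CBR; IMDM/0.5% FBS; cpd up to 46 uM; dox induction, 4 h, 37C/5% CO2; dual luminescence; green/red ratio; MG132 control.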
Potency is read from the fitted curve at half-maximal effect.

Row | Structure (SMILES) | activity change, negative = inhibition | Potency
1 | CN(CC(=O)Nc1ccc(Cl)cc1)c1ccc(S(=O)(=O)N2CCCCC2)cc1[N+](=O)[O-] | inconclusive: 2.33% | 
2 | CC1CCN(CC(=O)N2CCN(c3ccccc3)CC2)CC1 | inactive: 2.96% | 
3 | O=C1CN(Cc2ccccc2)C(=NCc2ccco2)S1 | inconclusive: -3.29% | 
4 | O=C(NCCc1ccccc1)c1ccc(Cl)nc1 |  | inconclusive: 1.16 µM [rising, partial curve, poor fit]
5 | Cc1ccc(CN(Cc2ccco2)C(=S)NCC(=O)O)cc1 | inconclusive: 15.6% | 
6 | COc1ccc(OCC(=O)Nc2c3c(nn2-c2ccccc2)CS(=O)(=O)C3)cc1 | inconclusive: -1.9% | 
7 | COc1cc(OC)cc(C(=O)NC2=NCCS2)c1 | inconclusive: 13.2% | 
8 | Cc1ccc(C2=NC(=O)/C(=C/c3cc(O)c(O)c(Br)c3)S2)cc1 | inconclusive: 24.2% | 
9 | CCCc1oc2c(c(=O)c1CC)C(=O)CC(C)(C)C2 | inconclusive: 9.04% | 
10 | CCOC(=O)c1sc(NC(=O)c2cccc(S(=O)(=O)N3c4ccccc4CC3C)c2)cc1C (stereo not drawn) | inactive: 0.32% | 
11 | CC(=O)c1cccc(N=Cc2c(O)ccc3ccccc23)c1 |  | inconclusive: 14.1 µM [falling, partial curve, poor fit]
12 | Nc1c(S(=O)(=O)c2cccs2)c2nc3ccccc3nc2n1CCc1ccccc1 | inconclusive: 2.08% | 
13 | COc1ccc(C)c2sc(NC(=O)c3cccc(N4C(=O)CCC4=O)c3)nc12 | inconclusive: -1.33% | 
14 | CCN(CC)c1ccc(CNc2ccc3c(c2)ncn3C(C)(C)C)cc1 | inconclusive: -5.4% | 
15 | CC(=O)Nc1cccc(NC(=O)CSc2nc(=O)n(CCCN3CCOCC3)c3c2CCC3)c1 | inactive: 5.26% | 
16 | Cc1cc(C)nc(NC(=O)c2cc([N+](=O)[O-])cc([N+](=O)[O-])c2)n1 | inactive: -2.56% | 
17 | COC(=O)c1cccc(Nc2ccc([N+](=O)[O-])cn2)c1 | inconclusive: 19.3% | 
18 | O=C(NCc1ccc(F)cc1)C1CCC(CNc2c(N3CCCCC3)c(=O)c2=O)CC1 (stereo not drawn) |  | inconclusive: 8.91 µM [falling, partial curve, poor fit]
19 | O=C1CC2c3ccccc3C1C1C(=O)N(CCO)C(=O)C21 (stereo not drawn) | inactive: -5.25% | 
20 | CCn1c2ccccc2c2cc(NC(=O)CSc3nnc(-c4ccc(OC)cc4)n3N)ccc21 | inconclusive: -0.753% | 
21 | CCCNC(=O)NC(=O)COC(=O)/C=C/c1cc(Br)ccc1F | inconclusive: -3.93% | 

Row | Structure (SMILES) | activity change, negative = inhibition | Potency
22 | CC(=O)N1C(C(=O)O)CSC1c1ccc(C)cc1 (stereo not drawn) |  | inconclusive: 4.11 µM [falling, single point]
23 | COC(=O)C1CCCCN1C(=O)c1cc(COc2cccc3cnccc23)on1 (stereo not drawn) |  | inconclusive: 35.5 µM [falling, partial curve, poor fit]
24 | COc1ccc(N2CCN(CC(=O)Nc3sccc3C#N)CC2)cc1 | inconclusive: -0.993% | 
25 | Cc1cccc2cc(C#N)c(NCc3ccccc3)nc12 | inconclusive: 18.2% | 
26 | COc1ccc(Br)c(C(=O)NC2CCCC2)c1 | inconclusive: -1.38% | 
27 | COc1ccc(CCNCC(O)Cn2c3ccccc3c3ccccc32)cc1OC (stereo not drawn) |  | inconclusive: 25.1 µM [falling, single point]
28 | Cc1ccccc1S(=O)(=O)NC1OC(=O)C(Cl)=C1Cl (stereo not drawn) | inactive: 4.19% | 
29 | C=CCn1c(N)c(C(=O)OC(C)(C)C)c2nc3ccccc3nc21 | inconclusive: -3.33% | 
30 | COc1ccccc1Nc1nc(NCCCN(C)C)nc(N)c1[N+](=O)[O-] | inconclusive: 6.12% | 
31 | N#CCCN(C(=O)Nc1ccc(Cl)c(Cl)c1)c1ccccc1 | inconclusive: 6.82% | 
32 | COC(=O)[C@@H](c1ccccc1)N(C)S(=O)(=O)c1cccc(S(=O)(=O)N(C)[C@@H](C(=O)OC)c2ccccc2)c1 | inactive: 23.1% | 
33 | Cc1ccc(C)c(OCC(=O)N/N=C/c2c(C)nn(-c3ccccc3)c2Cl)c1C | inactive: -5.64% | 
34 | O=c1cc(-c2ccc(O)c(O)c2)oc2cc(O)cc(O)c12 |  | inconclusive: 35.5 µM [rising, partial curve, poor fit]
35 | Cc1ccccc1-n1c(SCC(=O)c2c(N)n(C)c(=O)n(C)c2=O)nnc1-c1cccnc1 | inconclusive: 4.73% | 
36 | Oc1c(C=NCc2ccc(F)cc2)[nH]c2ccc(Br)c(Cl)c12 | inactive: 4.87% | 
37 | COc1ccc(N=c2oc3cc(O)ccc3cc2C(=O)Nc2ccccn2)cc1OC |  | inconclusive: 25.1 µM [falling, partial curve, poor fit]
38 | Cc1cc(C(F)(F)F)nc(-n2cc(-c3ccccc3)nn2)n1 | inconclusive: 2.59% | 
39 | Cc1ccc(OCCn2ncc3ccccc3c2=O)c(C)c1 | inconclusive: 11.5% | 
40 | COc1ccc(Cl)cc1NC(=O)CN(C)C(=O)COc1ccccc1F | inconclusive: -16.1% | 
41 | O=Cc1ccc(OCc2ccccn2)cc1 | inactive: -1.28% | 
42 | COc1ccc(C(=O)NC(=S)Nc2ccc(CN3CCOCC3)cc2)cc1Cl |  | inconclusive: 7.08 µM [falling, partial curve]

Row | Structure (SMILES) | activity change, negative = inhibition | Potency
43 | Oc1ccccc1CNc1cccc2cccnc12 |  | inconclusive: 20 µM [falling, partial curve, poor fit]
44 | CSc1nnc(-c2ccc([N+](=O)[O-])cc2)o1 | inconclusive: 6.52% | 
45 | CCCCS(=O)(=O)/C=C\C=C/S(=O)(=O)CCCC |  | inconclusive: 7.31 µM [rising, partial curve]
46 | Cc1ccc(-c2nc(C#N)c(NCc3ccco3)o2)cc1 | inactive: -1.05% | 
47 | O=C(c1ccc(F)cc1)N1C2CCC1CC(O)(c1ccc(F)cc1)C2 (stereo not drawn) | inconclusive: -1.09% | 
48 | CCOc1ccc2nc(SCC(=O)Nc3nonc3C)[nH]c2c1 | inconclusive: 16.6% | 
49 | CCCn1nnc(NC(=O)c2ccc(-c3cccc(Cl)c3)o2)n1 | inactive: -13.5% | 
50 | NC(=O)COc1c(-c2ccco2)oc2ccccc2c1=O | inconclusive: 1.68% | 
51 | CC(NCC(=O)Nc1ccccc1C(=O)NC1CC1)c1ccccc1Cl (stereo not drawn) | inconclusive: -3.81% | 
52 | CCOC(=O)c1ccc(NC(=O)CSc2ncccn2)cc1 | inconclusive: 18.2% | 
53 | COc1cc(C(=S)NC2CCCCC2)ccc1O | inconclusive: -1.55% | 
54 | Cc1cc(C)nc(NC2=NCC(=O)N2c2cc(Cl)cc(Cl)c2)n1 | inactive: -0.757% | 
55 | COc1cccc(NC(=O)c2ccc(-c3nc(COc4ccccc4)c(C)o3)cc2)c1 | inactive: 11.1% | 
56 | Cc1cccc(Cn2nc(-n3cccc3)c3c(C)cc(C)nc32)c1 | inactive: 1.68% | 
57 | Cc1cc(C)n2nc(C(=O)Nc3cccc(S(=O)(=O)N4CCCC4)c3)nc2n1 | inconclusive: 5.86% | 
58 | C=C(C)COc1ccc2c(C)c(CC(=O)N3C[C@H]4C[C@@H](C3)c3cccc(=O)n3C4)c(=O)oc2c1 | inconclusive: 16.3% | 
59 | Nc1nnc(SCc2ccc(Cl)cc2)s1 | inconclusive: 7.83% | 
60 | Cc1ccc(-c2noc(CNc3ccccc3)n2)cc1 | inconclusive: -22.7% | 
61 | C/C(=N\N1CCN(Cc2ccc(Cl)cc2)CC1)c1ccc([N+](=O)[O-])cc1 | inconclusive: 6.77% | 
62 | COc1ccccc1NC(=O)CC(=O)c1ccccc1 | inconclusive: -11% | 
63 | Cc1ccc2cc(C(c3nnnn3Cc3ccccc3)N3CCc4ccccc43)c(=O)[nH]c2c1C (stereo not drawn) |  | inconclusive: 0.116 µM [falling, full curve, poor fit]

Row | Structure (SMILES) | activity change, negative = inhibition | Potency
64 | Cn1cccc1C(=O)NCC1COc2ccccc2O1 (stereo not drawn) |  | inconclusive: 25.9 µM [falling, partial curve, poor fit]
65 | Cc1ccc(C)c(NC(=O)CSc2nc(=O)n(CCN(C)C)c3c2CCC3)c1 | inconclusive: -20.3% | 
66 | O=C(CSc1nnc2c(n1)[nH]c1ccccc12)NC1CCCCC1 | inconclusive: 9.05% | 
67 | COc1ccccc1C1CC(c2cccs2)=Nc2ccccc2S1 (stereo not drawn) |  | inconclusive: 18.4 µM [falling, single point]
68 | COc1cccc2sc(N(Cc3cccnc3)C(=O)COc3ccccc3)nc12 | inconclusive: -13.2% | 
69 | COC(=O)[C@]1(C)N[C@H](c2ccc(-c3cccc(Cl)c3)c(OC)c2)[C@@H]2C(=O)N(C)C(=O)[C@@H]21 | inconclusive: -3.38% | 
70 | CC1(C(=O)NC(=S)NNC(=O)c2ccncc2)CCCCC1 |  | inconclusive: 32.6 µM [falling, partial curve, poor fit]
71 | CN(C)c1nc2c(c(N)nn2-c2ccc(Cl)cc2)c(=O)o1 | inconclusive: 13.7% | 
72 | OC(COCc1ccc(Cl)cc1)CN1CCc2ccccc2C1 (stereo not drawn) | inconclusive: -4.78% | 
73 | CCOc1cc(S(=O)(=O)Nc2cc(C)cc(C)c2)ccc1Cl |  | inconclusive: 6.51 µM [rising, partial curve, poor fit]
74 | COCCSc1ccccc1C(=O)Nc1cc(C)cc(C)c1 | inconclusive: 9.69% | 
75 | CCOC(=O)C1=C(C)NC2=C(C(=O)CCC2)C1c1cccnc1 (stereo not drawn) | inconclusive: -0.92% | 
76 | CCc1nnc(NS(=O)(=O)c2ccc(NC(=O)COc3ccc4ccccc4c3)cc2)s1 | inconclusive: -25.5% | 
77 | CCC(=O)c1ccc(O)cc1 |  | inconclusive: 2.82 µM [falling, partial curve, poor fit]
78 | O=C(C1CC1)N1CCN(c2nc3ccccc3s2)CC1 | inconclusive: -0.139% | 
79 | CSCCC(NC(=O)c1ccccc1)C(=O)N1CC=C(c2ccccc2)CC1 (stereo not drawn) |  | inconclusive: 11.2 µM [falling, partial curve]
80 | O=C(O)CSCC(=O)NCc1c(Cl)cccc1Oc1ccccc1 | inconclusive: -8.12% | 
81 | COc1ccc(C(C)=O)c2c1OCCO2 | inconclusive: -0.446% | 
82 | CCC1CN(S(=O)(=O)c2cc(-c3cc(C)no3)ccc2OC)c2cc(C)ccc2O1 (stereo not drawn) | inactive: 8.86% | 
83 | CCN1C(=NCC2CC2)N[C@@H](c2cccc(C(F)(F)F)c2)C(C(=O)OC)=C1C |  | inconclusive: 14.1 µM [falling, single point]

Record cards, from the list above:
`CCc1nnc(NS(=O)(=O)c2ccc(NC(=O)COc3ccc4ccccc4c3)cc2)s1` in the list: activity change, negative = inhibition: inconclusive: -25.5%
`CCOc1cc(S(=O)(=O)Nc2cc(C)cc(C)c2)ccc1Cl` in the list: Potency: inconclusive: 6.51 µM [rising, partial curve, poor fit]
`CCN1C(=NCC2CC2)N[C@@H](c2cccc(C(F)(F)F)c2)C(C(=O)OC)=C1C` in the list: Potency: inconclusive: 14.1 µM [falling, single point]
